# In PubChem BioAssay AID504444 (National Center for Advancing Translational Sciences (NCATS), 2011):
# Hit rate of the full screen: of about 360,000 compounds, about 7,500 (2.1%) were called active. The shares of active, inactive and inconclusive entries below differ from those in the screen. Calls follow the shape of the dose curve; as a rule, active = well fitted inhibition curve with a large enough effect; inconclusive = small, poorly fitted or top-dose-only effect, or effect the other way; inactive = flat fitted curve, though single readings scatter. Potencies beside an inconclusive call are fits to weak or partial responses and may not hold up.
# Test: Nrf2 qHTS screen for inhibitors; also: nearly all actives have a fitted effect of over 60% in size
# Details: A549 ARE-Fluc reporter, luciferase luminescence, 18-24 h; activity change, negative = inhibition: at 46 µM (top of the series)
# Summary of the method: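 In this cell-based qHTS, ARE-driven firefly luciferase in A549 cells reports Nrf2 activity; the luminescent signal after BugLite lysis is the measured value, with a prior CellTiter-Fluor read for cell health.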
# % is scaled to controls: 0 for no effect and ±100 for the full control effect; potency is read from the fitted curve at half-maximal effect.
Compound,Potency,"activity change, negative = inhibition"
CCCCSc1nc2c(c(C(F)(F)F)c1C#N)CCC2,"inconclusive: 16.4 µM [activator, single point]",
CC(=O)c1cccc(Oc2cc(NN3CCCCC3)c([N+](=O)[O-])cc2[N+](=O)[O-])c1,"inconclusive: 18.4 µM [falling, single point]",
Cc1cc(SCC(=O)N/N=C/c2ccc(O)c(O)c2O)c(C)cc1Br,"inconclusive: 29.1 µM [falling, single point]",
COc1ccc(NC(=O)CSc2nnnn2C)cc1S(=O)(=O)N1CCCCC1,"inconclusive: 1.64 µM [falling, partial curve, poor fit]",
COc1nn(-c2nc(-c3ccccc3)cc(C(F)(F)F)n2)cc1[N+](=O)[O-],,inactive: 8.62%
O=C1NN(c2cccc(Br)c2)C(=O)/C1=C\c1ccc(O)cc1,,inactive: -13.4%
COc1cccc(CN(C)CC(=O)Nc2ccccc2C(=O)Nc2ccccc2)c1OC,active: 23.1 µM,
Cc1cccc(C)c1NC(=S)NC1CCCCC1,"inconclusive: 3.66 µM [activator, partial curve, poor fit]",
Cc1cccc(NCc2ccc(O)c3ncccc23)c1,"inconclusive: 23.1 µM [falling, single point]",
Cc1ccccc1Nc1nc(-c2cccnc2)cs1,"inconclusive: 1.16 µM [activator, full curve, poor fit]",
Cc1ccc(S(=O)(=O)Nc2nc(C)c(C)s2)cc1,,inactive: -6.55%
Cc1c(C(=O)Nc2ccc(OC(F)(F)F)cc2)sc2nc3n(c(=O)c12)CCC3,active: 10.3 µM,
C=CCSc1ncccc1C(=O)NCCc1ccccc1,"inconclusive: 18.4 µM [activator, partial curve, poor fit]",
COc1ccc(/C=N/Nc2nc(-c3ccc(Cl)cc3)cc(C(F)(F)F)n2)c(OC)c1,"inconclusive: 25.9 µM [activator, single point]",
CCCCCN=Cc1c(C)[nH]n(-c2nc3ccccc3s2)c1=O,"inconclusive: 16.4 µM [falling, partial curve, poor fit]",
COc1ccc2nc(Nc3nc(CSc4nnnn4-c4ccccc4)cc(=O)[nH]3)nc(C)c2c1,,inactive: -1.81%
CC1CCc2cc(F)ccc2N1C(=O)CN1C(=O)c2ccccc2C1=O (stereo not drawn),"inconclusive: 18.4 µM [activator, single point]",
O=C(Nc1nc2cc3c(cc2s1)OCCO3)C1=COCCO1,"inconclusive: 20.6 µM [falling, single point]",
CC(=O)N1N=C(N)SC1(C)C,,inactive: 6.25%
Cc1csc(=O)n1CCC(=O)OCc1nnc(-c2ccccc2)o1,"inconclusive: 3.26 µM [activator, partial curve]",
Cc1ccc(-c2nc(SCC(=O)Nc3cc(S(=O)(=O)N4CCCCC4)ccc3Cl)n[nH]2)cc1,"inconclusive: 18.4 µM [falling, single point]",
c1cc2c3c(cccc3c1)-c1cnccc1-2,"inconclusive: 4.11 µM [falling, partial curve, poor fit]",

Compound,Potency,"activity change, negative = inhibition"
O=C(c1cc(S(=O)(=O)N2CCOCC2)c(Cl)cc1Cl)N1CCCCC1,"inconclusive: 16.4 µM [falling, partial curve, poor fit]",
CC(NC(=O)Nc1cccc([N+](=O)[O-])c1)(C(F)(F)F)C(F)(F)F,"inconclusive: 20.6 µM [falling, single point]",
O=C(Nc1ccc(-c2cnco2)cc1)c1ccc(Cl)cc1,,inactive: -8.66%
CC(C)CCC(C)NC(=O)c1ccc2nccnc2c1 (stereo not drawn),"inconclusive: 3.26 µM [activator, full curve, poor fit]",
O=C(NCCS(=O)(=O)N1CCN(c2ccccc2)CC1)c1ccccc1F,"inconclusive: 7.31 µM [falling, partial curve, poor fit]",
OC1(c2ccc(OC(F)F)cc2)CSC(=Nc2cccnc2)N1C1CC1 (stereo not drawn),"inconclusive: 25.9 µM [falling, partial curve, poor fit]",
CSCCNC(=O)c1ccc2nc(Cc3ccccc3F)oc2c1,"inconclusive: 8.2 µM [activator, partial curve]",
CSc1nc2ccc(NC(=O)c3cccs3)cc2s1,"inconclusive: 20.6 µM [activator, single point]",
OCCCNCc1ccc(N(c2ccccc2)c2ccccc2)cc1,"inconclusive: 18.4 µM [activator, single point]",
CC(C)c1ccc(COC(=O)CN2C(=O)NC3(CCCCC3C)C2=O)cc1 (stereo not drawn),"inconclusive: 25.9 µM [falling, single point]",
COc1ccc(/C=C/C(=O)Nc2cccc(C(C)=O)c2)cc1,"inconclusive: 1.64 µM [activator, full curve]",
CNc1nc(-c2ccccc2)nc(-c2ccc(OC)cc2)c1C#N,"inconclusive: 23.1 µM [activator, partial curve, poor fit]",
COc1ccc(C(CNc2ncnc3sc(C)c(C)c23)N(C)C)cc1 (stereo not drawn),"inconclusive: 2.06 µM [falling, partial curve, poor fit]",
Cc1ccc(C(=O)OCC(=O)NCc2cccs2)c(C)c1,"inconclusive: 29.1 µM [activator, single point]",
CCC(C)(C)C1CCC2(CC1)NC(=O)N(CC(=O)N(C)CCOc1ccc(Cl)cc1)C2=O (stereo not drawn),"inconclusive: 13 µM [falling, partial curve, poor fit]",
O=C(COC(=O)CSc1ccc2ccccc2c1)NCc1ccc2c(c1)OCO2,"inconclusive: 0.58 µM [falling, partial curve, poor fit]",
Cc1c(NC(=O)OCCNC(=O)COc2ccc(Cl)cc2Cl)sc(=S)n1C,"inconclusive: 20.6 µM [falling, single point]",
Cc1ccc(Nc2c(-c3ccc(Br)o3)nc3ccccn23)cc1,,inactive: 13.3%
CC(=O)Nc1ccc(-c2nnc(SCC(=O)Nc3ccc4c(c3)oc3ccccc34)n2C)cc1,"inconclusive: 18.4 µM [activator, partial curve, poor fit]",
Fc1ccc(-c2cc(-c3cccs3)cc(-c3ccccc3)n2)cc1,,inactive: -0.334%
C=CCC[C@@H](Cc1ccc(F)cc1)C(=O)OC[C@@H]1CCCN1C(=O)[C@@H](CC=C)CC(=O)N[C@@H](CO)Cc1ccccc1,"inconclusive: 23.1 µM [falling, single point]",

# Arranged by molecular weight (smallest number first): some entries from above
Compound,Potency,"activity change, negative = inhibition"
CC(C)CCC(C)NC(=O)c1ccc2nccnc2c1 (stereo not drawn),"inconclusive: 3.26 µM [activator, full curve, poor fit]",
COc1ccc(/C=C/C(=O)Nc2cccc(C(C)=O)c2)cc1,"inconclusive: 1.64 µM [activator, full curve]",
CCC(C)(C)C1CCC2(CC1)NC(=O)N(CC(=O)N(C)CCOc1ccc(Cl)cc1)C2=O (stereo not drawn),"inconclusive: 13 µM [falling, partial curve, poor fit]",
